The supplement of paper PMC12823440, “Inhibitors supercharge kinase turnover through native proteolytic circuits” (Nature, 2025)
Counter-ions that a name gives are not always drawn. The list shows a part of the results. The calls rarely recur for the same compound in another form.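 In K562 cells expressing nanoluciferase-fused kinases, luminescence was recorded at 4 h intervals between 2 and 18 h, normalized as percent of control with DMSO at 100% and a positive control at 0%. A significant (2 sigma) signal drop marks a time point as decreased. The authors' rule for a hit is not shown and takes in more than the number of time points.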

These molecules were tested against EGFR_G719S (UniProt P00533) (assay: kinase-Nluc reporter destabilization hit call (1 = scored as downregulated) (binary); higher = compound decreases kinase abundance). Details: K562; 2-18 h.
With `O=c1[nH]c2ccccc2n1C1CCN(Cc2ccc(-c3[nH]c4cc5ncnc5cc4nc3-c3ccccc3)cc2)CC1` [AKT inhibitor VIII] (2.5 µM) the “kinase-Nluc reporter destabilization hit call” value was inactive: 0. For `C[C@H]1CC[C@]2(NC1)O[C@H]1C[C@H]3[C@@H]4CC[C@H]5C[C@@H](O[C@@H]6O[C@H](CO)[C@H](O[C@@H]7O[C@H](CO)[C@@H](O)[C@H](O[C@@H]8OC[C@@H](O)[C@H](O)[C@H]8O)[C@H]7O[C@@H]7O[C@H](CO)[C@@H](O)[C@H](O)[C@H]7O)[C@H](O)[C@H]6O)CC[C@]5(C)[C@H]4CC[C@]3(C)[C@H]1[C@@H]2C` [Tomatine] (2.5 µM), the “kinase-Nluc reporter destabilization hit call” value was inactive: 0. With `C=C[C@H]1CN2CC[C@]3(C(=O)Nc4ccccc43)[C@@H]2C[C@@H]1/C(=C\OC)C(=O)OC` [Corynoxeine] (2 µM) the “kinase-Nluc reporter destabilization hit call” value was inactive: 0. In the case of `C=CC(=O)Nc1ccc2[nH]c(=O)n(C3CCN(Cc4ccc(-c5nc6cc[nH]c(=O)c6cc5-c5ccccc5)cc4)CC3)c2c1` [Borussertib] (10 µM), the “kinase-Nluc reporter destabilization hit call” value is reported as inactive: 0. `CCOC(=O)c1c(/C(C#N)=C\N)c2ccc(Cl)c(Cl)c2n1C` (10 µM) was tested, and the “kinase-Nluc reporter destabilization hit call” value was inactive: 0. In the case of `CC(=O)OC(C)(C)/C=C/C(=O)[C@](C)(O)[C@H]1[C@H](O)C[C@@]2(C)[C@@H]3CC=C4[C@@H](C=C(O)C(=O)C4(C)C)[C@]3(C)C(=O)C[C@]12C` [Cucurbitacin E] (2.5 µM), the “kinase-Nluc reporter destabilization hit call” value is reported as inactive: 0. In the case of `Cc1[nH]ncc1-c1cc2nc([C@H]3CC4CCN3CC4)[nH]c(=O)c2s1` [(R)-Simurosertib] (10 µM), the “kinase-Nluc reporter destabilization hit call” value is reported as inactive: 0. With `C[C@H]1CC[C@]2(NC1)O[C@H]1C[C@H]3[C@@H]4CC[C@H]5C[C@@H](O)CC[C@]5(C)[C@H]4CC[C@]3(C)[C@H]1[C@@H]2C` [Tomatidine] (2 µM) the “kinase-Nluc reporter destabilization hit call” value was inactive: 0. In the case of `O=Cc1cn(Cc2ccc(Cl)cc2)c2ccccc12` [Oncrasin-1] (10 µM), the “kinase-Nluc reporter destabilization hit call” value is reported as inactive: 0. For `O=[N+]([O-])/C=C/c1ccc2c(c1)OCO2` (2.5 µM), the “kinase-Nluc reporter destabilization hit call” value was inactive: 0. In the case of `CCN1CCN(C(=O)Cc2ccc(Nc3ncc(F)c(Nc4ccc(C(=O)Nc5ccccc5Cl)cc4)n3)cc2)CC1` (2.5 µM), the “kinase-Nluc reporter destabilization hit call” value is reported as inactive: 0. `COc1ccc2c(c[n+](C)c3c4cc5c(cc4ccc23)OCO5)c1OC` [Chelerythrine (chloride)] (10 µM) was tested, and the “kinase-Nluc reporter destabilization hit call” value was inactive: 0. For `COC[C@H]1OC(=O)c2coc3c2[C@@]1(C)C1=C(C3=O)[C@@H]2CCC(=O)[C@@]2(C)C[C@H]1OC(C)=O` [Wortmannin] (2.5 µM), the “kinase-Nluc reporter destabilization hit call” value was inactive: 0. `C[C@H]1CC[C@]2(NC1)O[C@H]1C[C@H]3[C@@H]4CC[C@H]5C[C@@H](O)CC[C@]5(C)[C@H]4CC[C@]3(C)[C@H]1[C@@H]2C` [Tomatidine (hydrochloride)] (10 µM) was tested, and the “kinase-Nluc reporter destabilization hit call” value was inactive: 0. With `COc1ccc(/C=C/c2cc(OC)c(OC)c(OC)c2)cc1` (2.5 µM) the “kinase-Nluc reporter destabilization hit call” value was inactive: 0. For `O=c1cc(O)c2ccccc2o1` [4-Hydroxycoumarin] (10 µM), the “kinase-Nluc reporter destabilization hit call” value was inactive: 0. `C=CC(=O)N[C@H]1C=C(C)c2c(-c3cnc4ccccc4c3)c3c(N)ncnc3n2C1` (10 µM) was tested, and the “kinase-Nluc reporter destabilization hit call” value was inactive: 0. `N#CC(C#N)=Cc1ccc([N+](=O)[O-])c(O)c1` (10 µM) was tested, and the “kinase-Nluc reporter destabilization hit call” value was inactive: 0. `O=C(O)c1sc2cc(Cl)ccc2c1Cl` (10 µM) was tested, and the “kinase-Nluc reporter destabilization hit call” value was inactive: 0. With `Cc1n[nH]cc1-c1cc2nc([C@@H]3CC4CCN3CC4)[nH]c(=O)c2s1` [Simurosertib] (2.5 µM) the “kinase-Nluc reporter destabilization hit call” value was inactive: 0. For `Cn1cc(C2=C(c3cn(C4CCN(Cc5ccccn5)CC4)c4ccccc34)C(=O)NC2=O)c2ccccc21` [Enzastaurin] (10 µM), the “kinase-Nluc reporter destabilization hit call” value was inactive: 0. `CN(C)C(=O)c1ccc(Cn2c(C(=O)O)cc3c(Br)cc(Sc4ccc(Cl)c(Cl)c4)cc32)cc1` [Rheb inhibitor NR1] (10 µM) was tested, and the “kinase-Nluc reporter destabilization hit call” value was inactive: 0. In the case of `C/C(O)=C(\C#N)C(=O)Nc1cc(Br)ccc1Br` (10 µM), the “kinase-Nluc reporter destabilization hit call” value is reported as inactive: 0. For `O=C1c2ccccc2C(=O)c2c1cccc2-c1cnn(C2CCNCC2)c1` [PDK4-IN-1 (hydrochloride)] (10 µM), the “kinase-Nluc reporter destabilization hit call” value was inactive: 0. In the case of `COc1ccc(N(C(=O)Oc2c(C)cccc2C)c2ccnc(Nc3ccc(N4CCN(C)CC4)cc3)n2)c(OC)c1` (2.5 µM), the “kinase-Nluc reporter destabilization hit call” value is reported as inactive: 0. In the case of `C[C@@H]1CC[C@H]2[C@@H](C)C(=O)O[C@@H]3O[C@@]4(C)CC[C@@H]1[C@]32OO4` [Artemisinin] (10 µM), the “kinase-Nluc reporter destabilization hit call” value is reported as inactive: 0. With `CC(C)(C)c1cc(C=C(C#N)C#N)cc(Br)c1O` (2.5 µM) the “kinase-Nluc reporter destabilization hit call” value was inactive: 0. With `CC1=C[C@]23C(=O)[C@@H](C=C(CO)[C@@H](O)[C@]2(O)[C@H]1O)[C@H]1[C@@H](C[C@H]3C)C1(C)C` [Ingenol] (10 µM) the “kinase-Nluc reporter destabilization hit call” value was inactive: 0.
